In patent US6466814B1, “Method of magnetic resonance investigation” (Amersham Health AS, priority 1998, dated 2002):
Where two headings read alike, the source gives them in different places. Some entries repeat one wording, which the source may state once for all of them.

Tests used:
[1] = Low-field pumping of 13C in the solid, 13C-NMR signal; assay type: physicochemical; conditions: 6.56 T, 2.5 K, 10 minutes; stray field 7 mT for 1 s; repeated
[2] = 13C-signal enhancement after low-field pumping and dissolution (solution experiments); assay type: physicochemical; conditions: 35 s after leaving the cryomagnet; versus thermal equilibrium at 40° C. and 7 T; deuterium oxide
Description: A sample of solid 1-^13C-2,2,2′,2′,2″,2″-hexadeuterotris(hydroxymethyl)nitromethane was subjected to a magnetic field of 6.56 T at a temperature of 2.5 K for 10 minutes. The sample was then removed from the centre of the magnet to the stray field (7 mT) for a duration 1 s and then returned to the magnet. After another 10 minutes the process was repeated one more.
A sample of solid 1-^13C-2,2,2′,2′,2″,2″-hexadeuterotris(hydroxymethyl)nitromethane (20 mg) was subjected to the above-mentioned pumping procedure (see Examples 5-7) and then in less than 1 second moved to a holding field of 0.4 T where also a sample of deuterium oxide (3 ml) at a temperature of 40° C., stirred by nitrogen bubbling, was kept. […] The sample was inserted into the spectrometer and a ^13C-spectrum was recorded. […]
A sample of solid 2-^13C-2,2-bis(trideuteromethyl)-1,1,3,3-tetradeuteropropane-1,3-diol (20 mg) was subjected to the above-mentioned pumping procedure (see Examples 5-7) and then in less than 1 second moved to a holding field of 0.4 T where also a sample of deuterium oxide (3 ml) at a temperature of 40° C., stirred by nitrogen bubbling, was kept. […] The sample was inserted into the spectrometer and a ^13C-spectrum was recorded. […]

[3] = frozen 60:40 glycerol/water, cited from earlier work
[4] = 13C MRI after injection of the hyperpolarised solution into a rat; assay type: in vivo; conditions: polarized by microwaves 70 GHz, 2.5 T, 4.2 K; dissolved in warm (40° C.) water

[2H]C([2H])([2H])[13C](C([2H])([2H])[2H])(C([2H])([2H])O)C([2H])([2H])O [2-^13C-2,2-bis(trideuteromethyl)-1,1,3,3-tetradeuteropropane-1,3-diol]
13C-NMR signal of the solid sample after low-field pumping [1]: in accordance with thermal equilibrium at 6.56 T and 2.5 K | Enhancement factor of the 13C-signal [2]: 21

NC[13C](=O)O [13C-Glycine]
Enhancement (dynamic nuclear polarisation) ([3]; 4-amino TEMPO, 5 T and 40 K): ~100

[2H]C([2H])(O)[13C]([N+](=O)[O-])(C([2H])([2H])O)C([2H])([2H])O [1-^13C-2,2,2′,2′,2″,2″-hexadeuterotris(hydroxymethyl)nitromethane]
13C-NMR signal of the solid sample after low-field pumping [1]: in accordance with thermal equilibrium at 6.56 T and 2.5 K | Enhancement factor of the 13C-signal [2]: 12

[2H]C([2H])(O)[13C]1(C([2H])([2H])O)C([2H])([2H])C1([2H])[2H] [1-^13C-1,1-bis(hydroxydideuteromethyl)-2,2,3,3-tetradeuterocyclopropane]
13C-NMR signal of the solid sample after low-field pumping [1]: in accordance with thermal equilibrium at 6.56 T and 2.5 K

CC(=O)[O-].[Na+] [sodium acetate (1-^13C)]
13C MRI picture after injection into a rat, single shot (Experiment 3) [4]: enhanced intensity and contrast

NC[13C](=O)O [Carboxy-13C labelled glycine]
Enhancement (dynamic nuclear polarisation) ([3]; TEMPO, 5 T and 14 K): 185

O=[13C]([O-])O.[Na+] [NaH^13CO3, sodium bicarbonate—^13C]
13C MRI picture after injection into a rat, single shot (Experiment 3) [4]: enhanced intensity and contrast
